Experimental data: PubChem BioAssay AID1259405 (NCATS, 2018)

Aim: 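Silenced genes that increase secreted GFP made by CHO cells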 (primary screen)
System: Chinese hamster CHO-K1 ovary cells with stable secreted eGFP expression
Reagents: single siRNA against mouse genes, 0.8 pmol siRNA per well (2 µl of 400 nM stock)
Duration: 3 days
Detection: 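Per-well intracellular GFP measured by laser scanning cytometry, plus viability from ATP luminescence, each relative to plate median of non-targeting control wells, in %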
Reading the numbers: GFP, % of control: higher = more GFP per well, higher productivity; viability (ATP), % of control: higher = more viable cells (more ATP)
Rule for the call: 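Called active when intracellular GFP, relative to negative control, is at or above 120%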
Here is a random part of about 50,000 reagents tested. Over the whole deposit, about 4,000 (8%) got an active call. 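Mouse siRNA library applied to hamster cells; one well for each siRNA.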 Reagent sequences are not shown.

Target gene	PubChem SID	GFP, % of control	viability (ATP), % of control	activity call
Ift140 (intraflagellar transport 140)	SID363546821	94.6	65.1	inactive
Ift140 (intraflagellar transport 140)	SID363548577	81.4	97.3	inactive
Ift140 (intraflagellar transport 140)	SID363560755	55.9	64.8	inactive
Slco6b1	SID363575195	101	91.2	inactive
Slco6b1	SID363580827	78.3	70.1	inactive
Slco6b1	SID363582939	87.3	82	inactive
Ankrd33b (ankyrin repeat domain 33B)	SID363552212	55.7	37.2	inactive
Ankrd33b (ankyrin repeat domain 33B)	SID363585348	91.8	99.3	inactive
Ankrd33b (ankyrin repeat domain 33B)	SID363585699	109	102	inactive
Slc14a1	SID363574637	82.7	84.7	inactive
Slc14a1	SID363575693	88	59	inactive
Slc14a1	SID363580269	81.8	77.8	inactive
Pkmyt1 (protein kinase, membrane associated tyrosine/threonine 1)	SID363571015	68.9	74.1	inactive
Orc3 (origin recognition complex, subunit 3)	SID363545965	30.9	34	inactive
Orc3 (origin recognition complex, subunit 3)	SID363549478	57.3	62.1	inactive
Orc3 (origin recognition complex, subunit 3)	SID363563284	37.3	83.7	inactive
Gm2a (GM2 ganglioside activator protein)	SID363539898	55.7	54.3	inactive
Gm2a (GM2 ganglioside activator protein)	SID363561199	96.4	89.1	inactive
Gm2a (GM2 ganglioside activator protein)	SID363564235	74.7	92.1	inactive
Sh2d2a (SH2 domain containing 2A)	SID363554971	58.4	85.1	inactive
Sh2d2a (SH2 domain containing 2A)	SID363568418	80.9	71.3	inactive
Sh2d2a (SH2 domain containing 2A)	SID363586477	60.3	59.6	inactive
Pgam2 (phosphoglycerate mutase 2)	SID363545128	57.9	39.1	inactive
Pgam2 (phosphoglycerate mutase 2)	SID363548641	67	89	inactive
Pgam2 (phosphoglycerate mutase 2)	SID363562447	50.1	38.5	inactive
Gpr45 (G protein-coupled receptor 45)	SID363571071	112	94.8	inactive
Gpr45 (G protein-coupled receptor 45)	SID363571423	63.1	57.9	inactive
Gpr45 (G protein-coupled receptor 45)	SID363571775	79.8	77.2	inactive
Eif4a1 (eukaryotic translation initiation factor 4A1)	SID363569952	69.6	63.1	inactive
Eif4a1 (eukaryotic translation initiation factor 4A1)	SID363576992	46.4	62.6	inactive
Eif4a1 (eukaryotic translation initiation factor 4A1)	SID363578400	62	65	inactive
Oog3 (oogenesin 3)	SID363554507	60.8	56.7	inactive
Oog3 (oogenesin 3)	SID363567954	42.2	52.1	inactive
Oog3 (oogenesin 3)	SID363586013	52.9	50.1	inactive
Or5an6 (olfactory receptor family 5 subfamily AN member 6)	SID363544524	60.7	66.6	inactive
Or5an6 (olfactory receptor family 5 subfamily AN member 6)	SID363550852	74.5	82.7	inactive
Or5an6 (olfactory receptor family 5 subfamily AN member 6)	SID363557401	48.4	40.8	inactive
Gas7 (growth arrest specific 7)	SID363555494	86	93.7	inactive
Gas7 (growth arrest specific 7)	SID363564155	45.1	25.3	inactive
Gas7 (growth arrest specific 7)	SID363587701	89.8	84.9	inactive
a (nonagouti)	SID363541442	72.6	58.7	inactive
a (nonagouti)	SID363556069	60.3	61.6	inactive
a (nonagouti)	SID363566358	85	81.1	inactive
Zfp574 (zinc finger protein 574)	SID363573425	64.1	44.7	inactive
Zfp574 (zinc finger protein 574)	SID363588664	97.3	92	inactive
Slc66a1	SID363554581	76.4	36.6	inactive
Slc66a1	SID363568028	35.1	31.1	inactive
Slc66a1	SID363586087	90.8	125	inactive
Fhit (fragile histidine triad gene)	SID363547668	148	82.2	active
Fhit (fragile histidine triad gene)	SID363558437	248	72.5	active
Fhit (fragile histidine triad gene)	SID363560195	84.1	78	inactive
Or8a1 (olfactory receptor family 8 subfamily A member 1)	SID363554276	62.8	55.8	inactive
Or8a1 (olfactory receptor family 8 subfamily A member 1)	SID363567723	222	28.6	active
Or8a1 (olfactory receptor family 8 subfamily A member 1)	SID363585080	100	107	inactive
Tagln (transgelin)	SID363541265	45.6	61	inactive
Tagln (transgelin)	SID363555892	38.6	31.7	inactive
Tagln (transgelin)	SID363566181	58.4	78.6	inactive
Hsd17b10 (hydroxysteroid (17-beta) dehydrogenase 10)	SID363545328	58.6	53.6	inactive
Hsd17b10 (hydroxysteroid (17-beta) dehydrogenase 10)	SID363548841	86	107	inactive
Hsd17b10 (hydroxysteroid (17-beta) dehydrogenase 10)	SID363562647	46.5	23	inactive
Plpp3 (phospholipid phosphatase 3)	SID363547564	84.3	59.8	inactive
Plpp3 (phospholipid phosphatase 3)	SID363558333	83.9	67.2	inactive
Plpp3 (phospholipid phosphatase 3)	SID363560091	93.1	75.7	inactive
Bhlhe23 (basic helix-loop-helix family, member e23)	SID363555268	51.7	65.8	inactive
Bhlhe23 (basic helix-loop-helix family, member e23)	SID363563929	95.9	65.7	inactive
Bhlhe23 (basic helix-loop-helix family, member e23)	SID363587475	97.6	103	inactive
Cd248 (CD248 antigen, endosialin)	SID363544335	97.4	93	inactive
Cd248 (CD248 antigen, endosialin)	SID363550663	79.7	92.8	inactive
Cd248 (CD248 antigen, endosialin)	SID363557212	92	72.8	inactive
Spmip5 (sperm microtubule inner protein 5)	SID363540677	92.9	89	inactive
Spmip5 (sperm microtubule inner protein 5)	SID363543128	80.8	98.8	inactive
Spmip5 (sperm microtubule inner protein 5)	SID363552621	78.7	128	inactive
Slc75a1	SID363574865	96.3	85.7	inactive
Slc75a1	SID363575921	149	93.3	active
Slc75a1	SID363580497	103	80.3	inactive
Cltb (clathrin light chain B)	SID363582627	101	129	inactive
Cltb (clathrin light chain B)	SID363584387	55.2	66.3	inactive
Mtmr1 (myotubularin related protein 1)	SID363575116	111	82.8	inactive
Mtmr1 (myotubularin related protein 1)	SID363580748	76.5	56.3	inactive
Mtmr1 (myotubularin related protein 1)	SID363582860	98.1	98.8	inactive
Dynlrb1 (dynein light chain roadblock-type 1)	SID363572399	85.9	94.8	inactive
Dynlrb1 (dynein light chain roadblock-type 1)	SID363574159	46.3	58.5	inactive
Dtx2 (deltex 2, E3 ubiquitin ligase)	SID363584467	103	81.1	inactive
Dtx2 (deltex 2, E3 ubiquitin ligase)	SID363589497	107	124	inactive
